Results on eight compounds are retold here after patent US12703851B2, “Cell culture methods” (The University of Massachusetts, priority 2019, dated 2026).

The structures appear in SMILES notation.

One data set concerns CHO K1. Nature of the data set: Inhibitory metabolite accumulation, CHO K1 batch process (LC-ESI-MS). In kind it is cell-based, Chinese hamster. The conditions noted are these: CHO K1, batch culture, after 6 days.
As to `CC(C)CC(O)C(=O)O` (stereo not drawn) [HICA, α-hydroxyisocaproic acid], the “Inhibitory metabolite accumulation Conc.” value came to 10.62 µM.

With `CC(=O)NCCCCN` [NAP, N-acetylputrescinium], the “Inhibitory metabolite accumulation Conc.” value stood at 0.16 µM.

With `Nc1ccn([C@@H]2O[C@H](COP(=O)(O)O)[C@@H](O)[C@H]2O)c(=O)n1` [CMP, cytidine-5′-monophosphate], the “Inhibitory metabolite accumulation Conc.” value was 11.69 µM.

Consider `O=C(O)C=C(CC(=O)O)C(=O)O` [AA, aconitic acid], for which the “Inhibitory metabolite accumulation Conc.” value stood at 1910.00 µM.

Regarding `CC(CC(=O)O)C(=O)O` (centres unmarked) [MSA, methylsuccinic acid], the “Inhibitory metabolite accumulation Conc.” value turned out to be 3.97 µM.

`C[n+]1cccc(C(=O)[O-])c1` [TRI, trigonelline]: the “Inhibitory metabolite accumulation Conc.” value was 0.09 µM.

Staying with this data set, now noted: CHO K1 batch, Day 6.
With `CC(C)CC(O)C(=O)O` (stereo not drawn) [HICA, α-hydroxyisocaproic acid], the Inhibitory metabolite accumulation came out at 10.62 µM.

Regarding `CC(=O)NCCCCN` [NAP, N-acetylputrescinium], the Inhibitory metabolite accumulation came to 0.164 µM.

For the compound `Nc1ccn([C@@H]2O[C@H](COP(=O)(O)O)[C@@H](O)[C@H]2O)c(=O)n1` [CMP, cytidine-5′-monophosphate], the Inhibitory metabolite accumulation is 11.69 µM.

As to `O=C(O)C=C(CC(=O)O)C(=O)O` [AA, aconitic acid], the Inhibitory metabolite accumulation was 1910 µM.

For the compound `CC(CC(=O)O)C(=O)O` (centres unmarked) [MSA, methylsuccinic acid], the Inhibitory metabolite accumulation was found to be 3.97 µM.

Consider `C[n+]1cccc(C(=O)[O-])c1` [TRI, trigonelline], for which the Inhibitory metabolite accumulation was found to be 0.085 µM.

In the next data set the test system is HEK 293. Briefly: Inhibitory metabolite accumulation, HEK 293 batch process (LC-ESI-MS). Format: cell-based, human. The conditions noted are these: HEK 293, batch culture, after 6 days.
As to `CC(C)CC(O)C(=O)O` (stereo not drawn) [HICA, α-hydroxyisocaproic acid], the “Inhibitory metabolite accumulation Conc.” value was found to be 53.80 µM.

On to `CC(=O)NCCCCN` [NAP, N-acetylputrescinium], for which the “Inhibitory metabolite accumulation Conc.” value was found to be 0.17 µM.

Regarding `Nc1ccn([C@@H]2O[C@H](COP(=O)(O)O)[C@@H](O)[C@H]2O)c(=O)n1` [CMP, cytidine-5′-monophosphate], the “Inhibitory metabolite accumulation Conc.” value turned out to be 2.43 µM.

In the case of `O=C(O)C=C(CC(=O)O)C(=O)O` [AA, aconitic acid], the “Inhibitory metabolite accumulation Conc.” value stood at 984.53 µM.

For `CC(CC(=O)O)C(=O)O` (centres unmarked) [MSA, methylsuccinic acid], the “Inhibitory metabolite accumulation Conc.” value worked out at 1.55 µM.

Turning to `C[n+]1cccc(C(=O)[O-])c1` [TRI, trigonelline], the “Inhibitory metabolite accumulation Conc.” value was found to be 0.02 µM.

A further data set has as its system CHO-K1 cell line. Briefly: Inhibitory metabolite accumulation, CHO-K1 fed-batch process (LC-MS of culture supernatant). The conditions noted are these: CHO K1 fed batch, Day 5. Format: cell-based, Chinese hamster.
With `CC(C)CC(O)C(=O)O` (stereo not drawn) [HICA, α-hydroxyisocaproic acid], the Inhibitory metabolite accumulation is 8.53 µM.

`CC(=O)NCCCCN` [NAP, N-acetylputrescinium]: the Inhibitory metabolite accumulation is 0.096 µM.

As to `Nc1ccn([C@@H]2O[C@H](COP(=O)(O)O)[C@@H](O)[C@H]2O)c(=O)n1` [CMP, cytidine-5′-monophosphate], the Inhibitory metabolite accumulation was 1.14 µM.

On to `O=C(O)C=C(CC(=O)O)C(=O)O` [AA, aconitic acid], for which the Inhibitory metabolite accumulation turned out to be 1238 µM.

Take `CC(CC(=O)O)C(=O)O` (centres unmarked) [MSA, methylsuccinic acid]: the Inhibitory metabolite accumulation was 1.3 µM.

In the case of `C[n+]1cccc(C(=O)[O-])c1` [TRI, trigonelline], the Inhibitory metabolite accumulation was 0.018 µM.

Still in this data set, the particulars now being: CHO K1 fed batch, Day 8.
In the case of `CC(C)CC(O)C(=O)O` (stereo not drawn) [HICA, α-hydroxyisocaproic acid], the Inhibitory metabolite accumulation turned out to be 26.95 µM.

Consider `CC(=O)NCCCCN` [NAP, N-acetylputrescinium], for which the Inhibitory metabolite accumulation came out at 0.178 µM.

As for `Nc1ccn([C@@H]2O[C@H](COP(=O)(O)O)[C@@H](O)[C@H]2O)c(=O)n1` [CMP, cytidine-5′-monophosphate], the Inhibitory metabolite accumulation amounted to 5.82 µM.

Consider `O=C(O)C=C(CC(=O)O)C(=O)O` [AA, aconitic acid], for which the Inhibitory metabolite accumulation was 4026 µM.

Turning to `CC(CC(=O)O)C(=O)O` (centres unmarked) [MSA, methylsuccinic acid], the Inhibitory metabolite accumulation turned out to be 5.62 µM.

Take `C[n+]1cccc(C(=O)[O-])c1` [TRI, trigonelline]: the Inhibitory metabolite accumulation came to 0.132 µM.

Still in this data set, the particulars now being: CHO K1 fed batch, Day 14.
With `CC(C)CC(O)C(=O)O` (stereo not drawn) [HICA, α-hydroxyisocaproic acid], the Inhibitory metabolite accumulation amounted to 64.09 µM.

For the compound `CC(=O)NCCCCN` [NAP, N-acetylputrescinium], the Inhibitory metabolite accumulation was 0.196 µM.

As to `Nc1ccn([C@@H]2O[C@H](COP(=O)(O)O)[C@@H](O)[C@H]2O)c(=O)n1` [CMP, cytidine-5′-monophosphate], the Inhibitory metabolite accumulation was found to be 11.27 µM.

On to `O=C(O)C=C(CC(=O)O)C(=O)O` [AA, aconitic acid], for which the Inhibitory metabolite accumulation was 14359 µM.

Consider `CC(CC(=O)O)C(=O)O` (centres unmarked) [MSA, methylsuccinic acid], for which the Inhibitory metabolite accumulation is 13.59 µM.

Regarding `C[n+]1cccc(C(=O)[O-])c1` [TRI, trigonelline], the Inhibitory metabolite accumulation is 0.812 µM.

The same data set, now with this note: Table 2, CHO cell process.
In the case of `CC(C)CC(O)C(=O)O` (stereo not drawn) [HICA, α-hydroxyisocaproic acid], the Conc. was determined as 64.09 µM.

For `Nc1nc2c(ncn2[C@@H]2O[C@H](COP(=O)(O)O)[C@@H](O)[C@H]2O)c(=O)[nH]1` [GMP, Guanosine monophosphate], the Conc. amounted to 20 µM.

On to `O=C(O)c1c[nH]c2ccccc12` [ICA, indole-3-carboxylic acid, reference compound], for which the Conc. is 2.5 µM.

For the compound `CC(=O)NCCCCN` [NAP, N-acetylputrescinium], the Conc. worked out at 0.196 µM.

Take `Nc1ccn([C@@H]2O[C@H](COP(=O)(O)O)[C@@H](O)[C@H]2O)c(=O)n1` [CMP, cytidine-5′-monophosphate]: the Conc. is 11.27 µM.

As for `O=C(O)C=C(CC(=O)O)C(=O)O` [AA, aconitic acid], the Conc. was 14359 µM.

Consider `CC(CC(=O)O)C(=O)O` (centres unmarked) [MSA, methylsuccinic acid], for which the Conc. was determined as 13.59 µM.

Consider `C[n+]1cccc(C(=O)[O-])c1` [TRI, trigonelline], for which the Conc. was determined as 0.812 µM.

For another data set, the system named is CHO GS. Briefly: Inhibitory metabolite accumulation, CHO GS batch process (LC-ESI-MS). In kind it is cell-based, Chinese hamster. The conditions noted are these: batch culture, after 6 days.
Take `CC(C)CC(O)C(=O)O` (stereo not drawn) [HICA, α-hydroxyisocaproic acid]: the “Inhibitory metabolite accumulation Conc.” value was 31.63 µM.

As to `CC(=O)NCCCCN` [NAP, N-acetylputrescinium], the “Inhibitory metabolite accumulation Conc.” value was 0.20 µM.

For the compound `Nc1ccn([C@@H]2O[C@H](COP(=O)(O)O)[C@@H](O)[C@H]2O)c(=O)n1` [CMP, cytidine-5′-monophosphate], the “Inhibitory metabolite accumulation Conc.” value was found to be 78.51 µM.

`O=C(O)C=C(CC(=O)O)C(=O)O` [AA, aconitic acid]: the “Inhibitory metabolite accumulation Conc.” value is 717.42 µM.

Take `CC(CC(=O)O)C(=O)O` (centres unmarked) [MSA, methylsuccinic acid]: the “Inhibitory metabolite accumulation Conc.” value was 2.59 µM.

Consider `C[n+]1cccc(C(=O)[O-])c1` [TRI, trigonelline], for which the “Inhibitory metabolite accumulation Conc.” value is 0.81 µM.
